Positions count from the first letter of the chain named. Names and notes keep the numbering of the source. Results are given in words; binding and its absence hold for the method and conditions named. Binding seen in cells or lysates may run through a third protein. Some results given as binding are weak or reduced against the parent protein; the word gives no strength. Tags and fused reporters may be left off the sequences shown.
B1: Flag-tagged SHARPIN WT (SHANK-associated RH Domain Interactor) (protein, UniProt Q9H0F6-1 1-387)
chain: MAPPAGGAAAAASDLGSAAVLLAVHAAVRPLGAGPDAEAQLRRLQLSADPERPGRFRLELLGAGPGAVNLEWPLESVSYTIRGPTQHELQPPPGGPGTLSLHFLNPQEAQRWAVLVRGATVEGQNGSKSNSPPALGPEACPVSLPSPPEASTLKGPPPEADLPRSPGNLTEREELAGSLARAIAGGDEKGAAQVAAVLAQHRVALSVQLQEACFPPGPIRLQVTLEDAASAASAASSAHVALQVHPHCTVAALQEQVFSELGFPPAVQRWVIGRCLCVPERSLASYGVRQDGDPAFLYLLSAPREAPATGPSPQHPQKMDGELGRLFPPSLGLPPGPQPAASSLPSPLQPSWSCPSCTFINAPDRPGCEMCSTQRPCTWDPLAAAST
B2: Flag-tagged SHARPIN R274W mutant (protein, UniProt Q9H0F6-1 1-387)
chain: B1 chain with R274W

The chains behind the UniProt entries cited, without tags or fusion partners.
UniProt Q96EP0: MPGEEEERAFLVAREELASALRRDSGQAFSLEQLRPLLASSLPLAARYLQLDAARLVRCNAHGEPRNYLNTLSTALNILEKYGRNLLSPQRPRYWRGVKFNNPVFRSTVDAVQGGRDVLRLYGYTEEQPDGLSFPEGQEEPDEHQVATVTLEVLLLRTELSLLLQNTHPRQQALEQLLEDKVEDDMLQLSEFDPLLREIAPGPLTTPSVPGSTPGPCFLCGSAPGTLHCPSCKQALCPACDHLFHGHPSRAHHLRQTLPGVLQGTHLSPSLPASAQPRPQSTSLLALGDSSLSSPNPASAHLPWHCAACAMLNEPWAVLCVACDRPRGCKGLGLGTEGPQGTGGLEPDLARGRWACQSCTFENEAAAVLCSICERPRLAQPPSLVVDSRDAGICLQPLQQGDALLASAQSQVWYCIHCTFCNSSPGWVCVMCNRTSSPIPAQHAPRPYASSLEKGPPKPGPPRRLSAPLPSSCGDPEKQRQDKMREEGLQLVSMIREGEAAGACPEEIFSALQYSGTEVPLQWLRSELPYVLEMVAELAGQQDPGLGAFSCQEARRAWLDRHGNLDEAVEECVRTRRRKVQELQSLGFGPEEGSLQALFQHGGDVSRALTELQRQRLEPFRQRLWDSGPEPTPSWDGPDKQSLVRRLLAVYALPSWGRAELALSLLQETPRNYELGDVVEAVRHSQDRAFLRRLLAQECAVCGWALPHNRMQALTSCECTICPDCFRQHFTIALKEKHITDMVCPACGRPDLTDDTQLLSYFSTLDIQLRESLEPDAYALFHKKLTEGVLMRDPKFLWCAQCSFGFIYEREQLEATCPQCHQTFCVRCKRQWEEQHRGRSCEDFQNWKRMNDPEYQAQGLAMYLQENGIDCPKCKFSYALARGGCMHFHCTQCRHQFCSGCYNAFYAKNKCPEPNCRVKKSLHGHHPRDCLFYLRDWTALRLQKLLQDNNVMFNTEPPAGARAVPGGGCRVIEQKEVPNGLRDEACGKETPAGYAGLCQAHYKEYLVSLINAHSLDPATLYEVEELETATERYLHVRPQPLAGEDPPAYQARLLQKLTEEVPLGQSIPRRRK

Target: Myc-tagged HOIP WT (HOIL-1-interacting protein) (UniProt Q96EP0)
Test: co-IP; 293T cells transiently co-transfected with Flag-tagged SHARPIN (WT or R274W) and Myc-tagged HOIP; immunoprecipitated with anti-Myc antibody, western blot (Fig. 4A)

| Binder | binding |
| --- | --- |
| B1 | binds |
| B2 | binds |

Reference: publication PMC8595886
